# Assay results published in paper PMC10845952.
# By UniProt entry, the sequences of proteins in these tests, tags left out. Where a name states a change or a piece, a line headed by the entry shows the natural chain unless it says otherwise. Residues count along the entry.
# UniProt Q8DVD0: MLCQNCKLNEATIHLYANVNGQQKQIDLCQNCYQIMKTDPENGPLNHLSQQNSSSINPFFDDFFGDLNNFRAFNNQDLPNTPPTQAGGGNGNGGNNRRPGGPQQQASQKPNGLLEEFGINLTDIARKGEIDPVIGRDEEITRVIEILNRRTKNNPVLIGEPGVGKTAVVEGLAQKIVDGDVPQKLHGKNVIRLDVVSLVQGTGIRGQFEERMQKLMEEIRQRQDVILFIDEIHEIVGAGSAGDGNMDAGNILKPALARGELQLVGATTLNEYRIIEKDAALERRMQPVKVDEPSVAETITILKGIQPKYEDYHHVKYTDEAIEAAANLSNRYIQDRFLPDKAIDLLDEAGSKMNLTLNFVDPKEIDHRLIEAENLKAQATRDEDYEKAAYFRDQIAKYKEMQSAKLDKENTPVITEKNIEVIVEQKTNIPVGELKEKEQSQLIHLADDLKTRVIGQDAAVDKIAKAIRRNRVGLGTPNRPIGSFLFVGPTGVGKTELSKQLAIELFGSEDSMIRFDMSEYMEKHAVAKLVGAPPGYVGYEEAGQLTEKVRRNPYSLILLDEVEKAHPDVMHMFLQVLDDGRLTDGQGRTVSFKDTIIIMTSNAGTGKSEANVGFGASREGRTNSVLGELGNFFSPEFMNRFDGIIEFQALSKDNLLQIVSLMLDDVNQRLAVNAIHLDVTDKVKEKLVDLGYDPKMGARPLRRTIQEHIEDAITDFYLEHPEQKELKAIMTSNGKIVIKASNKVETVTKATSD
# UniProt Q8DTQ2: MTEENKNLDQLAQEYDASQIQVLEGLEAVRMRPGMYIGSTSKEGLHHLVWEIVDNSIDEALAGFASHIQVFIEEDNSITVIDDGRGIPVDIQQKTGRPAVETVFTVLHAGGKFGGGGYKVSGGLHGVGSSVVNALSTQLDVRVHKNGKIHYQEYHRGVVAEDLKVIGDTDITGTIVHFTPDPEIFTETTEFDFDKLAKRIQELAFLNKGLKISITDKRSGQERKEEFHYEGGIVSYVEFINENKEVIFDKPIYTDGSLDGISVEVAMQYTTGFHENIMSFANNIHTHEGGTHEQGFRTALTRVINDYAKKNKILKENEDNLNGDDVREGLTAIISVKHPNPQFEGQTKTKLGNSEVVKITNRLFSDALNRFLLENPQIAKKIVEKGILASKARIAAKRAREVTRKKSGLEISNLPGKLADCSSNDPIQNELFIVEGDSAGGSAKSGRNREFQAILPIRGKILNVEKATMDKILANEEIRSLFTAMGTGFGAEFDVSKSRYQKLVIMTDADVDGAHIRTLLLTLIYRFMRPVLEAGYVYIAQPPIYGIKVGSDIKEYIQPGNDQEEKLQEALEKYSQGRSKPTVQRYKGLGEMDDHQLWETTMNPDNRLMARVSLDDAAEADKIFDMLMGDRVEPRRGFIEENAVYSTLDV
# UniProt Q8CWY9: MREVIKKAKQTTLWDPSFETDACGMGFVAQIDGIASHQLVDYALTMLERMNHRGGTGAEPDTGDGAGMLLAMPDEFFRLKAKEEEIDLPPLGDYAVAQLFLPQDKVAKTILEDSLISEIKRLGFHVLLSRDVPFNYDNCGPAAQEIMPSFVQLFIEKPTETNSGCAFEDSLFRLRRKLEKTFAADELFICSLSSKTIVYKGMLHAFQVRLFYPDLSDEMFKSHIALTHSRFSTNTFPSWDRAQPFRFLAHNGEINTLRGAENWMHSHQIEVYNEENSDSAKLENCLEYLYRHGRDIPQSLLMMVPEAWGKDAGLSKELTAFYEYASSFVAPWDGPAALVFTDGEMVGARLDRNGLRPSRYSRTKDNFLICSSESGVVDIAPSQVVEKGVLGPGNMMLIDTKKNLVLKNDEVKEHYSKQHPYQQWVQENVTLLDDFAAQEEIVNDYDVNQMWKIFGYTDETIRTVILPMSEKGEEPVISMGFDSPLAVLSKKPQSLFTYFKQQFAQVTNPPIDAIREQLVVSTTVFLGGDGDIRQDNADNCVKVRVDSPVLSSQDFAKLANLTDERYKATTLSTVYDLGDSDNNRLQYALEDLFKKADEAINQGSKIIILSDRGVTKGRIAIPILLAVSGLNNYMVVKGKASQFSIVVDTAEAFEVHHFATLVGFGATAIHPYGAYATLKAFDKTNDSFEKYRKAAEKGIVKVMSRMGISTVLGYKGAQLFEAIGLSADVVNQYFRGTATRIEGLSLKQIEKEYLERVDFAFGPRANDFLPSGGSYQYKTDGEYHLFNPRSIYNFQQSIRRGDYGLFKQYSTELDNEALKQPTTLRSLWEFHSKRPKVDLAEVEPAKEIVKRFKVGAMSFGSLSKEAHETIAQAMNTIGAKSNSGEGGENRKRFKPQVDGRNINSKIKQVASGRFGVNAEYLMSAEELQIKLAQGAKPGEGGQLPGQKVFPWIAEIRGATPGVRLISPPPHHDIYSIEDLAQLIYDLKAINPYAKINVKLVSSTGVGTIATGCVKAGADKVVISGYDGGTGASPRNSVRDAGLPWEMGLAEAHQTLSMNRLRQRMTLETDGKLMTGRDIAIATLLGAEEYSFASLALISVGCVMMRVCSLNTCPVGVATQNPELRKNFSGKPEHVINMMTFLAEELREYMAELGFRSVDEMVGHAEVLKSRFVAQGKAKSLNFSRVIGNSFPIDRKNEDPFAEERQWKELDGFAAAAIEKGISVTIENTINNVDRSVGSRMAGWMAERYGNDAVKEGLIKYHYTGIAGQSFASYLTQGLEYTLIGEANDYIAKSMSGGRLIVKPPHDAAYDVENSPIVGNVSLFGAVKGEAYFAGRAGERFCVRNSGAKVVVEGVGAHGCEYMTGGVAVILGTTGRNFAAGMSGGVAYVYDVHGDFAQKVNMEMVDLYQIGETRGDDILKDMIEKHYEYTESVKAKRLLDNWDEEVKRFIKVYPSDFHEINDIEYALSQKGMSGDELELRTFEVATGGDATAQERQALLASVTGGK
# UniProt Q59931: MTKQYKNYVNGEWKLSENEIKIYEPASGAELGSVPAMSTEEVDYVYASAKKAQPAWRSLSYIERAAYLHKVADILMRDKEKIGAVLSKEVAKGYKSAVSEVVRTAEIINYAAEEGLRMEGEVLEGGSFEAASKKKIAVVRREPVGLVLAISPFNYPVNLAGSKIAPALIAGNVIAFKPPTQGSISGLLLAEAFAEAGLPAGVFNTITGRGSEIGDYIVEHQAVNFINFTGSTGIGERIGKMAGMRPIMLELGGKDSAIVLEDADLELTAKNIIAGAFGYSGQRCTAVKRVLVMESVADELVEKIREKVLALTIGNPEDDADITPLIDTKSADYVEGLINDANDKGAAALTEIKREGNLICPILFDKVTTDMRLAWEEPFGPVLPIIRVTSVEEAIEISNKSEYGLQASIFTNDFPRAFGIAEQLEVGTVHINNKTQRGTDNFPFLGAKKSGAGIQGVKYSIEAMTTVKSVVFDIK
# UniProt Q8DS05: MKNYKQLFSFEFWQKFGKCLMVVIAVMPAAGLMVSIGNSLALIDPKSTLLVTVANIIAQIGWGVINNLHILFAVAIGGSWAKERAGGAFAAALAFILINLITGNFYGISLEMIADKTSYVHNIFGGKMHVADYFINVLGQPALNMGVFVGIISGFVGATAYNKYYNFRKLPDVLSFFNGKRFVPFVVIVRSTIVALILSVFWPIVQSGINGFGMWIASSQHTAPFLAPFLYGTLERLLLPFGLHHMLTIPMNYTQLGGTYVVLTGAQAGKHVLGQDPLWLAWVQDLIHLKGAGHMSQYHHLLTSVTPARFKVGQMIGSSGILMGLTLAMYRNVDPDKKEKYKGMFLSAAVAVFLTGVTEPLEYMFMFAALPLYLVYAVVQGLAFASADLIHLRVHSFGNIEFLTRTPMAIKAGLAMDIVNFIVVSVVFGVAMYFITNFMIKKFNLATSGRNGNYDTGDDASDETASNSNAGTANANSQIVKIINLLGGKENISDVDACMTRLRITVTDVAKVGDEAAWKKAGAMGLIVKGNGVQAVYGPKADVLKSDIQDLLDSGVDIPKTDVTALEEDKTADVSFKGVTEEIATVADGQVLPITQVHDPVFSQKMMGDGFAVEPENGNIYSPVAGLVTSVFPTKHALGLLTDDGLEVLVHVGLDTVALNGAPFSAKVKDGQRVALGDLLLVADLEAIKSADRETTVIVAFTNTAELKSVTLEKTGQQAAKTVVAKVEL
# UniProt Q8DWH9: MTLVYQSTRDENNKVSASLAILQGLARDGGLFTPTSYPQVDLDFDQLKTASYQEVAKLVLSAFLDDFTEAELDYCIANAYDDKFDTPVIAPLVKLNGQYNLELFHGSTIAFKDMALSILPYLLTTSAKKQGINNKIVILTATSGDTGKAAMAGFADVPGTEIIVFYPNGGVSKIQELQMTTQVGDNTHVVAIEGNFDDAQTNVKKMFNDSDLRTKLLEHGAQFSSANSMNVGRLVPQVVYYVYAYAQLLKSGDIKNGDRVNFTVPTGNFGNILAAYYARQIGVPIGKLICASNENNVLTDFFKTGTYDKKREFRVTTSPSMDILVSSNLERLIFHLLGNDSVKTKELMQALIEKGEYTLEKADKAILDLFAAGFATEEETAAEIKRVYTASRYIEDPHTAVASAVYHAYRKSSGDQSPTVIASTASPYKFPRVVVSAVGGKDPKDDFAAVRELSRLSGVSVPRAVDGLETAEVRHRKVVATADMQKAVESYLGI
# UniProt Q8DV07: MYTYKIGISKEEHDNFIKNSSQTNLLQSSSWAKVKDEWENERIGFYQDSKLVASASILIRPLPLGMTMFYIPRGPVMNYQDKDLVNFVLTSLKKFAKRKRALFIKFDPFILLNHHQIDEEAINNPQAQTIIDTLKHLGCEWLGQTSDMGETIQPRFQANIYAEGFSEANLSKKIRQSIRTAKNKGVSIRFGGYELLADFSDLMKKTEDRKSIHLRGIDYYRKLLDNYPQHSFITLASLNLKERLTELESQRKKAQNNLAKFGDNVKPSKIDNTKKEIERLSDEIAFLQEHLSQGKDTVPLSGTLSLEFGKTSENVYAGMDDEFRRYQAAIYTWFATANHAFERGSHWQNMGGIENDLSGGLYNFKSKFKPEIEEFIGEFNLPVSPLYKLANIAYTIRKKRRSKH
# UniProt P08987, residues 35-1476: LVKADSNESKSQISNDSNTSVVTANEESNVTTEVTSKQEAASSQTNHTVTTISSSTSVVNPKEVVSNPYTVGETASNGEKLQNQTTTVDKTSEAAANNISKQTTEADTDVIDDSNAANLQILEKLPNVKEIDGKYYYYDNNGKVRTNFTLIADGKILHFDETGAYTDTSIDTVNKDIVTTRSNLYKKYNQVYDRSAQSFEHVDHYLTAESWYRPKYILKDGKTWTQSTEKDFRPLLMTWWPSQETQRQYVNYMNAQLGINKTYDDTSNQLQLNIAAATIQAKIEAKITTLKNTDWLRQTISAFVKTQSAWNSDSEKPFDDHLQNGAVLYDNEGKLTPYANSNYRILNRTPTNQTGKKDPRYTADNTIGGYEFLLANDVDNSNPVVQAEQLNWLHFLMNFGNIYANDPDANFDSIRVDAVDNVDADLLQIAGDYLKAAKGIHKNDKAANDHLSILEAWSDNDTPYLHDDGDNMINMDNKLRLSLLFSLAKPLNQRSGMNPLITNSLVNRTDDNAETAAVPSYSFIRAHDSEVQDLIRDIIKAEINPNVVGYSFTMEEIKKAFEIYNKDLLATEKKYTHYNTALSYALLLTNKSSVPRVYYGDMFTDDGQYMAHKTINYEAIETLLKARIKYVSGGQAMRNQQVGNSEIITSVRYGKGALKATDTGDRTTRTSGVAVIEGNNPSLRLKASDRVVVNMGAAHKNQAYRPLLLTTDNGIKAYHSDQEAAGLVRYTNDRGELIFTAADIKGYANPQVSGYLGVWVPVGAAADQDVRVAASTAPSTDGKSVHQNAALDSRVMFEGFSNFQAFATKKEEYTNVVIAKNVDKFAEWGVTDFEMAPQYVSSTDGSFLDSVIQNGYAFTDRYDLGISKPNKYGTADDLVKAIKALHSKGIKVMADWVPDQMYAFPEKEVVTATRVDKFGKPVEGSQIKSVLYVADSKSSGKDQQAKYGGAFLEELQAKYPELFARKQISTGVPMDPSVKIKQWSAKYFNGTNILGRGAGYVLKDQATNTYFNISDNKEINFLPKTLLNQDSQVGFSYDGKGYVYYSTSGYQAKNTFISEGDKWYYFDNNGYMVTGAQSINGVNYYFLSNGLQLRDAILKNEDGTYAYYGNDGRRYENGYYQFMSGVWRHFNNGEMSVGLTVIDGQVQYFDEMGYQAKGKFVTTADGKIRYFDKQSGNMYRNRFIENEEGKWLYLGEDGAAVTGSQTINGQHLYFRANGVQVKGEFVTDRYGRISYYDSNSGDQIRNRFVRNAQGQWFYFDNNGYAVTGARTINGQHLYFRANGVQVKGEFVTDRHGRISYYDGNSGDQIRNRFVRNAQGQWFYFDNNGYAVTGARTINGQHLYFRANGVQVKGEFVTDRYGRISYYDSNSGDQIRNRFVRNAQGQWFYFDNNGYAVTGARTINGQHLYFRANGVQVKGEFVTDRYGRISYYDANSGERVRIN
# Results are given in words; binding and its absence hold for the method and conditions named. In cells and extracts the contact can be indirect. Here binding means that the protein was enriched with, or labelled near, the bait; the list need not be complete. Tags and fused reporters may be left off the sequences shown.
# Molecular target: T1, MecA with C-terminal tandem affinity purification (TAP) tag (3x HA + FLAG) (S. mutans) (UniProt Q8DW33)
# T1 sequence: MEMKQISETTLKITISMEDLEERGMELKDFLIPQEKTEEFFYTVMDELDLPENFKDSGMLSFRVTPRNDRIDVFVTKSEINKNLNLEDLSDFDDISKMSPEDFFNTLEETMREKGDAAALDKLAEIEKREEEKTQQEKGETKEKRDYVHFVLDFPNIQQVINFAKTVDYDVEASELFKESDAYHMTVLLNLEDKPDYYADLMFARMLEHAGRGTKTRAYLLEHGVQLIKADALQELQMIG
# Assay: affinity purification with mass spectrometry; MecA with C-terminal TAP tag (3x HA + FLAG) as bait; S. mutans grown to mid-logarithmic phase, formaldehyde crosslinked; anti-FLAG affinity resin, then anti-HA affinity resin; LC-MS/MS; three experiments; >=2-fold enrichment of spectral counts over the untagged wild type
row,binding,Substance
1,binds,"ATP-dependent Clp protease ATP-binding subunit, ClpE (from UniProt Q8DVD0 1-753)"
2,binds,"DNA topoisomerase (ATP-hydrolyzing) subunit B, GyrB (from UniProt Q8DTQ2 1-650)"
3,binds,"DNA topoisomerase IV subunit B, ParE (from UniProt Q8DTW0 1-649)"
4,binds,"Glutamate synthase large subunit, GltA (from UniProt Q8CWY9)"
5,binds,"NADP-dependent glyceraldehyde-3-phosphate dehydrogenase, GapN (from UniProt Q59931 1-475)"
6,binds,"PTS transporter subunit EIIC, PtsG (from UniProt Q8DS05)"
7,binds,"Peptide ABC transporter substrate-binding protein, OppA (from UniProt Q8DW25)"
8,binds,"Threonine synthase, ThrC (from UniProt Q8DWH9)"

row,Substance,binding
1,Autolysin (S. mutans (endogenous in UA159)),binds

# Molecular target: T1, MecA with C-terminal tandem affinity purification (TAP) tag (3x HA + FLAG) (S. mutans)
# Assay: affinity purification with mass spectrom
row,binding,Substance
1,binds,"Type I DNA topoisomerase, TopA (from UniProt Q8DUD3 1-705)"

# Molecular target: T1, MecA with C-terminal tandem affinity purification (TAP) tag (3x HA + FLAG) (S. mutans)
# Assay: affinity purification with mass spectrometry
row,Substance,binding
1,"Aminoacyltransferase, MurM (from UniProt Q8DV07 1-404)",binds
2,"Glucosyltransferase-I, GtfB (from UniProt P08987 35-1476)",binds
3,"Glucosyltransferase-SI, GtfC (from UniProt P13470 35-1455)",binds
